# From patent US20190125669A1, “SYSTEMS AND METHODS FOR STEROIDAL GELS” (Children's Medical Center Corporation, priority 2016, published 2019)
# Conditions: DexP:Ca^2+=1:1
structure (smiles),measurement,value
"C[C@@H]1C[C@H]2[C@@H]3CCC4=CC(=O)C=C[C@]4(C)[C@@]3(F)[C@@H](O)C[C@]2(C)[C@@]1(O)C(=O)COP(=O)(O)O [Dexamethasone phosphate, dexamethasone phosphate disodium]",Critical gelation concentration (lowest concentration of DexP which leads to a stable gel),~10 mM
